The supplement of paper PMC10849652
Some of the results follow.

Chains of the proteins cited; added tags and fusions are not shown. Lines headed by an entry give the natural chain unless they say otherwise; changes in a name come on top.
UniProt Q8NEZ4, whole entry, looked up: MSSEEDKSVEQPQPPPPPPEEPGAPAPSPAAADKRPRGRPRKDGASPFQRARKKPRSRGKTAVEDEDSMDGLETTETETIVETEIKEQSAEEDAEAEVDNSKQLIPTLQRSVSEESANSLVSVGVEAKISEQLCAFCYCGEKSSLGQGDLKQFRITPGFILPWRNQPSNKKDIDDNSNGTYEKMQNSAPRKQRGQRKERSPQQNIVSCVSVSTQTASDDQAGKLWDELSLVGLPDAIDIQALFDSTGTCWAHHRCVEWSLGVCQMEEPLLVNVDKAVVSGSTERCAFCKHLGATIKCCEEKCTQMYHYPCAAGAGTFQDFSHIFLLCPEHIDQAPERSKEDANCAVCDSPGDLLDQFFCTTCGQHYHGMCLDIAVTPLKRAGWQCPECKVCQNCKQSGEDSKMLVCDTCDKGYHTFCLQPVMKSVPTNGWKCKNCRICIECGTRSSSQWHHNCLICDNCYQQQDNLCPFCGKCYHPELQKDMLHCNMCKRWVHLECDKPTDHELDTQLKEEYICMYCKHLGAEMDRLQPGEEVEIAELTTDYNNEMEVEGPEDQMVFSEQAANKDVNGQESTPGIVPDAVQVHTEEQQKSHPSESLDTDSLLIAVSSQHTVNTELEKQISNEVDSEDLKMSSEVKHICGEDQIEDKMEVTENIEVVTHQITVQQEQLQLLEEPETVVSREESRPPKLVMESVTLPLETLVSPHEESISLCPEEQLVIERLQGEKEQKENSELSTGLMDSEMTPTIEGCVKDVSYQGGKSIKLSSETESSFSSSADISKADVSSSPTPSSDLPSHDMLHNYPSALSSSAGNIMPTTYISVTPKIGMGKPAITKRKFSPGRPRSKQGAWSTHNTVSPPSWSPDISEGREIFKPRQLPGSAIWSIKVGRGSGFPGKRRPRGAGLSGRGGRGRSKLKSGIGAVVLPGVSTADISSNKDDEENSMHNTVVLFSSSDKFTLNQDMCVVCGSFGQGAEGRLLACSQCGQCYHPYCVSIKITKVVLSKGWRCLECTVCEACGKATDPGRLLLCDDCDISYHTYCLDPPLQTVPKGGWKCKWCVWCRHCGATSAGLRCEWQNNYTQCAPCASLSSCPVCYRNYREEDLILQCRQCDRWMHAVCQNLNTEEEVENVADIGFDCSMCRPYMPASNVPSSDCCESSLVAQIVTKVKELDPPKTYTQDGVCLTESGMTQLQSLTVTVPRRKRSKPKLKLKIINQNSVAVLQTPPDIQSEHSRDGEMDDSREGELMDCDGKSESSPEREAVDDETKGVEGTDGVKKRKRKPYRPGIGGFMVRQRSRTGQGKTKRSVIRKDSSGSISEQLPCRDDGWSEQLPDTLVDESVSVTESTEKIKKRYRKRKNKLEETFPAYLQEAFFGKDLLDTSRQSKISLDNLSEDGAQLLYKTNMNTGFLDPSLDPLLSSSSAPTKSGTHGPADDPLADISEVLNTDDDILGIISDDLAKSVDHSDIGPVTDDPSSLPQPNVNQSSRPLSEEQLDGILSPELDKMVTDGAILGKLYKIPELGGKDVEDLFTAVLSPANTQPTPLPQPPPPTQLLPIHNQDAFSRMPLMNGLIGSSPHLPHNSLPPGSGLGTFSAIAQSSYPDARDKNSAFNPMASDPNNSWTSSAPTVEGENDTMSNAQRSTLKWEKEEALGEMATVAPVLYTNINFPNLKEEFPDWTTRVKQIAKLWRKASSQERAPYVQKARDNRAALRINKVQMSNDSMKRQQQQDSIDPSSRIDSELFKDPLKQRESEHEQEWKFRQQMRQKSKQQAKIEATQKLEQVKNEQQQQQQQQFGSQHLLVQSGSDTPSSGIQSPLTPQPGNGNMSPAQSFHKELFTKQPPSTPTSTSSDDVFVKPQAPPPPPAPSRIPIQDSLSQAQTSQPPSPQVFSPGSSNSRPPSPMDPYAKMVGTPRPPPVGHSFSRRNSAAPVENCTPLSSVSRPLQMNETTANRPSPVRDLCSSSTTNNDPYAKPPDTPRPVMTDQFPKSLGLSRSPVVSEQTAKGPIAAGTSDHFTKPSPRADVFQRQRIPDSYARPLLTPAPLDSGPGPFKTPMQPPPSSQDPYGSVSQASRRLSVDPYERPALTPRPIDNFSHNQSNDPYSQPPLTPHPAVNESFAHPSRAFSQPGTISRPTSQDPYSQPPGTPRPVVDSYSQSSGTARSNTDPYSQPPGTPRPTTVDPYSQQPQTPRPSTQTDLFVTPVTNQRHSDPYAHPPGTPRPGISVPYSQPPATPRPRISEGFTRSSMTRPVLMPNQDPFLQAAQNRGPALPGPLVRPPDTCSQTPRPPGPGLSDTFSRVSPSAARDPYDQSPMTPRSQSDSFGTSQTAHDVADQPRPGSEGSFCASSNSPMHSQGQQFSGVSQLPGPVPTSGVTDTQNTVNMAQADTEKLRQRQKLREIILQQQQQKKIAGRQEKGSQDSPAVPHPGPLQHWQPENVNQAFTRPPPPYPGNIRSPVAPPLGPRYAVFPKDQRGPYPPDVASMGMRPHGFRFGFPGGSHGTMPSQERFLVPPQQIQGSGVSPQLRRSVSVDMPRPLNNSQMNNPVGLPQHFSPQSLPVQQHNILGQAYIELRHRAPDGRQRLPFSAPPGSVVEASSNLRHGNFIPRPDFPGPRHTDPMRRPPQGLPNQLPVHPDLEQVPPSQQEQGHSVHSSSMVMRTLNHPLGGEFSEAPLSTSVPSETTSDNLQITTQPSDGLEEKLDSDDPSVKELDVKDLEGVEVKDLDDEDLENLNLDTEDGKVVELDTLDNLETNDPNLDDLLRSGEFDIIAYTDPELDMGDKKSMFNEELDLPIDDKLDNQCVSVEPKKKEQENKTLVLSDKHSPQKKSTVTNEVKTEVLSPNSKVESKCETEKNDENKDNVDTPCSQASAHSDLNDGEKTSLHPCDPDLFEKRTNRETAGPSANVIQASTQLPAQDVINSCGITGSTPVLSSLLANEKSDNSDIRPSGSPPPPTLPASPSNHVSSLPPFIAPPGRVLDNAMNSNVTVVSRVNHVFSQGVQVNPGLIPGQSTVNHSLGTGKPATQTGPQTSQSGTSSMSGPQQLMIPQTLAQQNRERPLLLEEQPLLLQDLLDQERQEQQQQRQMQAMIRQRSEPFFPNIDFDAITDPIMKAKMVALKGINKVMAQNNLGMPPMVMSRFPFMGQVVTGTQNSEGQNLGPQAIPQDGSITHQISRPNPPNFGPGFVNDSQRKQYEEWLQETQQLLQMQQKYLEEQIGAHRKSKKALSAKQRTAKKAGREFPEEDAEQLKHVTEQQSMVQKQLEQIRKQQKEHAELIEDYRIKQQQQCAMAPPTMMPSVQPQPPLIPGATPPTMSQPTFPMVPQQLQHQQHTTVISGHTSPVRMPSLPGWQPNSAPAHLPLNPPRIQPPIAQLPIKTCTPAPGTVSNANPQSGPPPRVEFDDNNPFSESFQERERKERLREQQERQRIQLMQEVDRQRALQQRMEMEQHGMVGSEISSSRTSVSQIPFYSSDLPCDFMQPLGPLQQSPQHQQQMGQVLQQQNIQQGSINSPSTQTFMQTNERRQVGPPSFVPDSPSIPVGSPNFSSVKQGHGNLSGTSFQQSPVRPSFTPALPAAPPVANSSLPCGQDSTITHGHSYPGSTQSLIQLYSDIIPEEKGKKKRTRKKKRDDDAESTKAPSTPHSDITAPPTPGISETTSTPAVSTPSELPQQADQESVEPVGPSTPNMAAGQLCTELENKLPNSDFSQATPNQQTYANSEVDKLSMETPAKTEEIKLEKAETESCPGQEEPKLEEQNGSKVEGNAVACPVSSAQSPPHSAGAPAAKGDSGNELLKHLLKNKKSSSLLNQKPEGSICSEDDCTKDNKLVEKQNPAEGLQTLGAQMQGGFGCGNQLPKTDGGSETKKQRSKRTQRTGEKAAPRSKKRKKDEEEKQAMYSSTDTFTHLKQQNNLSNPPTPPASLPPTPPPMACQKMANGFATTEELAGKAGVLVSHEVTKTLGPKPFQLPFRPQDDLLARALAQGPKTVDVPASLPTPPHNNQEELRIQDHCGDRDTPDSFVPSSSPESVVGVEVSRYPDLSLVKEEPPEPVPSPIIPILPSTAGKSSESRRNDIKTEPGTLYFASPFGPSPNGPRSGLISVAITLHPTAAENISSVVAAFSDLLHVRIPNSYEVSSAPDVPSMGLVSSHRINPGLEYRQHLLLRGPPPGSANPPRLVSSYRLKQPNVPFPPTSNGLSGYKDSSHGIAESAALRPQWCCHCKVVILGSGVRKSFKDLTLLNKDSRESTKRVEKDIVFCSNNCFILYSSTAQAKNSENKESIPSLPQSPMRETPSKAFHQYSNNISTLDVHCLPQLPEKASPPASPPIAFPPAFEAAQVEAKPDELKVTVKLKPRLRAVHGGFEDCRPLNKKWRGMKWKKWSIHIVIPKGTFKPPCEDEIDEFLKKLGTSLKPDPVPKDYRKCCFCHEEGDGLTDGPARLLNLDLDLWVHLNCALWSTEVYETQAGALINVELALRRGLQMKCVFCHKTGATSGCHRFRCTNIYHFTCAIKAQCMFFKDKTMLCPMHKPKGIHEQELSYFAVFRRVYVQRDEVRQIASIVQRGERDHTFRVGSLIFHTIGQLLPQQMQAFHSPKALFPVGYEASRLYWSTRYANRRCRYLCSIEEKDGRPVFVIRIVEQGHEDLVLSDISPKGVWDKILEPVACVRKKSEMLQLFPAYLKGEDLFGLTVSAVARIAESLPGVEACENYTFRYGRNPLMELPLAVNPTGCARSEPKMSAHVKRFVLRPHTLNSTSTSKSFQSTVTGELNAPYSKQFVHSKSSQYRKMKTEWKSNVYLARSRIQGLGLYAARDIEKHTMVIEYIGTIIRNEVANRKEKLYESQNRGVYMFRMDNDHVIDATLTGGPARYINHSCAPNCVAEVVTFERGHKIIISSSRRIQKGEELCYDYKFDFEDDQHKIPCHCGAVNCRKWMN
UniProt P01591, whole entry, looked up: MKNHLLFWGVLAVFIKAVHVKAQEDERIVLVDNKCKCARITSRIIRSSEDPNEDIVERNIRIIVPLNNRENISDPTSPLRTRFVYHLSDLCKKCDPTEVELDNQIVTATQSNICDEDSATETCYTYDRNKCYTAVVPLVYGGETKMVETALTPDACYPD
UniProt Q9H9V9: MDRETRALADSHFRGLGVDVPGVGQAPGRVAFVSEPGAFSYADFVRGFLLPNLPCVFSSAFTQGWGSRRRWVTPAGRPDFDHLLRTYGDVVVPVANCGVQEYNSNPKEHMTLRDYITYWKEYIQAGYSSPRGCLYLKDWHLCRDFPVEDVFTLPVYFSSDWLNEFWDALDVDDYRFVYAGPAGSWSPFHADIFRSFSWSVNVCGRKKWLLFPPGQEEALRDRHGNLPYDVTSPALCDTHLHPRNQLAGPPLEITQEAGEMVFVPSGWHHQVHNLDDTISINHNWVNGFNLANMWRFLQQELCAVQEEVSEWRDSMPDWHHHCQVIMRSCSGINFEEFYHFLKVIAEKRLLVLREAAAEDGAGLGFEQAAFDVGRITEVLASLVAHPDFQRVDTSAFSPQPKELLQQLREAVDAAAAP
UniProt Q8IXQ5, whole entry, looked up: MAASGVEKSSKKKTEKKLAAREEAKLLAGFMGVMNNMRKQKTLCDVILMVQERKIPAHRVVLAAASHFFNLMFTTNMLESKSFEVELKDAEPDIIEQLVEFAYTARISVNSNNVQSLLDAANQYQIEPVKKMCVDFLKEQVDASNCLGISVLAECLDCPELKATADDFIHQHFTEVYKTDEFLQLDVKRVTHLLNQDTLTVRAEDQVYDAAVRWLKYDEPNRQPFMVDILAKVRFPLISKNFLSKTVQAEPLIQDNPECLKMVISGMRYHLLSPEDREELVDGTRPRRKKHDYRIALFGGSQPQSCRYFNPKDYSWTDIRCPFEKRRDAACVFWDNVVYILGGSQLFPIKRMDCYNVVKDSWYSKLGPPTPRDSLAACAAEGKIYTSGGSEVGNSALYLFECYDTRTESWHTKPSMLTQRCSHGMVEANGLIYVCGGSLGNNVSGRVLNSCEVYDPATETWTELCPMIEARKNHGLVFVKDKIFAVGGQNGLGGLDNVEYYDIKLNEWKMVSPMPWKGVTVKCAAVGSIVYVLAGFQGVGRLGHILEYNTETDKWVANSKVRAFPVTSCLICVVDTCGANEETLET
UniProt P57682: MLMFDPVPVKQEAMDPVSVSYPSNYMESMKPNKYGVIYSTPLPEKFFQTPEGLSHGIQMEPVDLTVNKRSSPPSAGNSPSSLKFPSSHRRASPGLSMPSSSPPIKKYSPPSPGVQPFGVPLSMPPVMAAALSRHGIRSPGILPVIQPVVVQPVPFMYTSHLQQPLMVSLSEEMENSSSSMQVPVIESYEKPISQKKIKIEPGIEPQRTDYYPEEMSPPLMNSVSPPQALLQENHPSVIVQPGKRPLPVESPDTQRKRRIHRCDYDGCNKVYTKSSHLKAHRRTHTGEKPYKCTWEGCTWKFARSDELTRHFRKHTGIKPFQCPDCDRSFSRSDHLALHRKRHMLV

Assays:
Experiment in all cases: log2 fold change, soluble protein after heating vs DMSO (PISA); higher = thermal stabilisation; K562 cells, 10 uM, 30 min; active = over 0.2 and 3.5 SD of the protein, either way, in both replicates (recomputed)
[1] = compound: CC[C@@H]1C(=O)N(C)c2cnc(Nc3ccc(C(=O)NC4CCN(C)CC4)cc3OC)nc2N1C1CCCC1
Method in brief: (§1)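 Quantification of soluble protein used TMTpro 16plex LC-MS/MS, with channel sums equalised. Samples were the supernatant after 21,000xg for 90 min of pooled aliquots from K562 cells (2×10^6 cells/mL) treated with 10 μM compound for 30 min, heated for 3 min over 48°C-58°C, and extracted in PBS with 0.5% NP-40 at 4°C. Values, from duplicates, describe thermal stability against control samples on a log2 fold-change scale.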

[2] = compound: CC[C@@H]1C(=O)N(C)c2cnc(Nc3ccc(C(=O)N[C@H]4CC[C@H](N5CCN(CC6CC6)CC5)CC4)cc3OC)nc2N1C(C)C [volasertib]
Method in brief: as §1

[3] = compound: CC[C@H](C)N1C=C(C2=C(C=C(C=C21)C3=CN=C(C=C3)N4CCNCC4)C(=O)NCC5=C(C=C(NC5=O)C)C)C
Method in brief: as §1

[4] = compound: CC[C@H](C)[C@@H](C(=O)N[C@@H]([C@@H](C)O)C(=O)N[C@@H](CC(C)C)C(=O)[C@]1(CO1)C)NC(=O)[C@H]([C@@H](C)CC)N(C)C(=O)C [epoxomicin]
Method in brief: as §1

[5] = compound: CCn1c(C(=O)N(C2CC2)C2CC2)cc2c3c(ncn3C)c(Nc3cc(C)n(C)n3)nc21
Method in brief: as §1

[6] = compound: CCn1cc(-c2ccnc3[nH]c(-c4cccc(CN(C)C)c4)cc23)c(-c2ccc(NC(=O)N(C)C)cc2)n1
Method in brief: as §1

[7] = compound: CN(C)CC(=O)Nc1ccc2[nH]c(=O)c3ccccc3c2c1
Method in brief: as §1

[8] = compound: CN(CCOC1=CC=C(C=C1)C[C@H]2C(=O)NC(=O)S2)C3=CC=CC=N3 (racemic) [rosiglitazone]
Method in brief: as §1

[9] = compound: CN1C2=C(C3=C1C(=O)N(N=C3)CC4=CC(=CC=C4)N)SC(=C2)S(=O)C
Method in brief: as §1

[10] = compound: CN1CCC(CNc2ccc3ncc(-c4cccc(OC(F)(F)F)c4)n3n2)CC1
Method in brief: as §1

[11] = compound: CN1CCN(CCOc2cc(OC3CCOCC3)c3c(Nc4c(Cl)ccc5c4OCO5)ncnc3c2)CC1 [saracatinib]
Method in brief: as §1

[12] = compound: CN1CCN(c2nc(C3=C(c4c[nH]c5ccccc45)C(=O)NC3=O)c3ccccc3n2)CC1 [sotrastaurin]
Method in brief: as §1

[13] = compound: CN1CC[C@H](c2c(O)cc(O)c3c(=O)cc(-c4ccccc4Cl)oc23)[C@H](O)C1 [alvocidib]
Method in brief: as §1

[14] = compound: CN1CCc2c(c3ccccc3n2Cc2ccc(C(=O)NO)cc2)C1 [Tubastatin A]
Method in brief: as §1

[15] = compound: CNC(=O)C1=CC=CC=C1NC2=NC(=NC=C2Cl)NC3=C(C=C(C=C3)N4CCOCC4)OC
Method in brief: as §1

[16] = compound: CNC(=O)c1ccc(Nc2ncc(C(F)(F)F)c(NCc3nccnc3N(C)S(C)(=O)=O)n2)cc1 [defactinib]
Method in brief: as §1

[17] = compound: CNCc1ccc(-c2[nH]c3cc(F)cc4c3c2CCNC4=O)cc1 [rucaparib]
Method in brief: as §1

[18] = compound: CNc1nc(-c2ccc3c(N)n[nH]c3c2)cc(N2C[C@@H](C(=O)NC3CCCCC3)CC[C@H]2C)n1
Method in brief: as §1

[19] = compound: COC(=O)N[C@@H](C)CNc1nccc(-c2cn(C(C)C)nc2-c2cc(Cl)cc(NS(C)(=O)=O)c2F)n1 [encorafenib]
Method in brief: as §1

[20] = compound: COC(=O)[C@H](CCSC)NC(=O)C1=C(C=C(C=C1)NC[C@H](CS)N)C2=CC=CC=C2
Method in brief: as §1

Measured: log2 fold change

KIF5A (UniProt Q12840)
inactive: [1] -0.006 | [2] 0.026 | [3] 0.021 | [4] 0.009 | [5] -0.02 | [6] -0.046 | [7] -0.006 | [8] 0.035 | [9] -0.041 | [10] 0.013 | [11] 0 | [12] -0.006 | [13] -0.019 | [14] 0.019 | [15] 0.009 | [16] -0.038 | [17] 0.005 | [18] -0.004 | [19] 0.021 | [20] 0.028

KCNH2 (UniProt Q12809)
inactive: [2] -0.16 | [4] -0.002 | [5] -0.022 | [7] 0.037 | [8] -0.082 | [9] 0.159 | [11] -0.26 | [12] -0.04 | [14] 0.213 | [15] -0.221 | [16] 0.217 | [18] 0.092 | [20] 0.088

KNL1 (UniProt Q8NG31)
inactive: [1] 0.012 | [4] 0.173 | [5] -0.181 | [6] -0.17 | [9] 0.043 | [10] -0.145 | [11] -0.021 | [12] -0.037 | [13] -0.098 | [14] 0.198 | [15] -0.349 | [17] -0.136 | [18] 0.028 | [19] 0

KIF16B isoform 2 (UniProt Q96L93)
inactive: [1] -0.028 | [9] 0.026 | [11] -0.138 | [13] 0.091 | [17] -0.056 | [18] -0.161 | [19] -0.008

KIAA1109 (UniProt Q2LD37)
inactive: [1] -0.194 | [5] -0.085 | [6] 0.173 | [10] 0.003 | [12] 0.01 | [15] 0.02 | [17] -0.252 | [19] 0.003

KDM3A (UniProt Q9Y4C1)
inactive: [1] 0.149 | [5] -0.17 | [6] -0.058 | [10] -0.078 | [13] 0.103 | [15] 0.243 | [17] 0.088 | [19] -0.124

KMT2C isoform 3 (UniProt Q8NEZ4)
inactive: [3] -0.02 | [4] -0.004 | [6] 0.031 | [7] 0 | [9] 0.026 | [11] -0.026 | [12] -0.02 | [14] -0.029 | [15] 0.009 | [16] -0.043 | [17] -0.043 | [18] -0.046 | [19] -0.012 | [20] 0.035
active: [1] -0.908 | [10] -0.337

KRR1 (UniProt Q13601)
inactive: [1] 0.167 | [6] -0.546 | [10] 0.141 | [17] -0.104 | [19] -0.044

JCHAIN (UniProt P01591)
inactive: [1] 0.125 | [3] 1.51 | [8] 0.02 | [17] 0.067 | [19] -0.699

JAK3 (UniProt P52333)
inactive: [2] -0.075 | [3] 0.09 | [4] -0.033 | [6] 0.128 | [7] -0.042 | [9] -0.01 | [10] 0.012 | [11] -0.03 | [12] -0.042 | [14] -0.016 | [15] 0.116 | [16] 0.003 | [18] -0.158 | [20] -0.056

KAT8 isoform 2 (UniProt Q9H7Z6)
inactive: [2] -0.208 | [3] -0.013 | [5] 0.046 | [6] 0.024 | [7] -0.062 | [8] 0.014 | [9] 0.044 | [10] 0.003 | [11] 0.132 | [12] -0.06 | [13] 0.035 | [14] 0.034 | [15] -0.031 | [16] -0.062 | [18] -0.206 | [20] 0.062

JMJD4 (UniProt Q9H9V9)
inactive: [2] -0.225 | [3] -0.107 | [8] -0.027 | [9] -0.106 | [11] 0.022 | [12] 0.041 | [18] 0.012

KALRN (UniProt O60229)
inactive: [1] -0.269 | [3] -0.196 | [4] -0.06 | [5] 0.223 | [8] -0.005 | [13] -0.03 | [15] -0.039 | [17] -0.035 | [19] -0.102

KIF4A (UniProt O95239)
inactive: [1] -0.116 | [6] -0.058 | [7] 0.215 | [9] -0.396 | [10] 0.043 | [11] 0.054 | [13] -0.223 | [14] 0.089 | [16] -0.04 | [17] 0.199 | [18] -0.169 | [19] 0.217 | [20] 0.106

KIF1B isoform 3 (UniProt O60333)
inactive: [1] 0.193 | [7] -0.032 | [16] 0.127 | [17] -0.046 | [19] -0.222 | [20] 0.17

KISS1R (UniProt Q969F8)
inactive: [2] 0.171 | [4] 0.007 | [5] -0.088 | [6] -0.11 | [8] 0.026 | [9] 0.119 | [10] 0.18 | [11] -0.246 | [12] -0.046 | [14] 0 | [15] -0.019 | [18] 0.043

JAG2 (UniProt Q9Y219)
inactive: [2] -0.028 | [3] 0.028 | [4] -0.067 | [5] -0.094 | [7] 0.092 | [8] -0.113 | [9] -0.079 | [11] -0.17 | [12] -0.147 | [13] 0.002 | [14] 0.085 | [15] -0.043 | [16] 0.048 | [18] 0.037 | [20] -0.111

2 records picked at random from those above:
KDM3A (UniProt Q9Y4C1)
inactive: [1] 0.149 | [5] -0.17 | [6] -0.058 | [10] -0.078 | [13] 0.103 | [15] 0.243 | [17] 0.088 | [19] -0.124

KMT2C isoform 3 (UniProt Q8NEZ4)
inactive: [3] -0.02 | [4] -0.004 | [6] 0.031 | [7] 0 | [9] 0.026 | [11] -0.026 | [12] -0.02 | [14] -0.029 | [15] 0.009 | [16] -0.043 | [17] -0.043 | [18] -0.046 | [19] -0.012 | [20] 0.035
active: [1] -0.908 | [10] -0.337

Continuation.

JMJD8 (UniProt Q96S16)
inactive: [2] 0.074 | [3] -0.094 | [7] 0.072 | [9] -0.054 | [11] -0.027 | [12] -0.183 | [16] 0.044 | [18] -0.083 | [20] -0.02

KIFAP3 (UniProt Q92845)
inactive: [1] 0.137 | [3] 0.03 | [4] 0.032 | [8] 0.114 | [17] -0.27 | [19] 0.03

ITSN1 (UniProt Q15811)
inactive: [2] 0.14 | [4] 0.097 | [6] -0.172 | [10] -0.302 | [12] -0.147

KLK10 (UniProt O43240)
inactive: [1] 0.078 | [17] -0.013 | [19] -0.058

KIAA0513 (UniProt O60268)
inactive: [2] -0.409 | [3] -0.014 | [5] -0.088 | [6] 0.052 | [7] -0.011 | [8] -0.17 | [10] -0.336 | [12] -0.126 | [13] 0.074 | [14] 0.153 | [15] 0.018 | [16] -0.062 | [20] -0.017

JUN (UniProt P05412)
inactive: [1] -0.007 | [3] -0.002 | [5] 0.096 | [8] -0.187 | [12] 0.086 | [13] -0.036 | [14] -0.119 | [15] -0.125 | [17] 0.056 | [19] 0.096

JMJD7 (UniProt P0C870)
inactive: [1] -0.006 | [3] 0.031 | [4] 0.059 | [5] -0.066 | [8] -0.248 | [9] -0.05 | [11] -0.432 | [12] 0.008 | [15] -0.041 | [17] 0.095 | [18] -0.123 | [19] 0.002

KDM1B (UniProt Q8NB78)
inactive: [1] -0.158 | [3] 0.036 | [5] 0.176 | [8] 0.051 | [9] 0.24 | [11] -0.22 | [12] -0.048 | [14] 0.04 | [15] -0.013 | [17] 0.361 | [18] 0.191 | [19] -0.055

KLHL7 (UniProt Q8IXQ5)
inactive: [2] -0.007 | [3] -0.023 | [4] 0.02 | [5] 0.06 | [7] -0.445 | [8] -0.035 | [9] 0.02 | [11] 0.108 | [12] -0.002 | [13] -0.138 | [15] 0.024 | [16] -0.064 | [18] -0.176 | [20] 0.049

KLF3 (UniProt P57682)
inactive: [2] 0.1 | [3] 0.038 | [4] 0.049 | [5] 0.036 | [6] -0.029 | [7] -0.148 | [8] -0.095 | [9] 0.086 | [10] -0.082 | [11] -0.076 | [12] 0.082 | [13] -0.03 | [14] 0.002 | [15] 0.135 | [16] 0.04 | [18] -0.004 | [20] -0.006

KIF15 (UniProt Q9NS87)
inactive: [1] 0.147 | [4] -0.204 | [5] -0.001 | [6] 0.036 | [7] -0.046 | [8] -0.181 | [9] 0.371 | [10] 0.178 | [11] -0.15 | [12] -0.156 | [13] 0.025 | [14] 0.142 | [15] -0.106 | [16] 0.103 | [17] 0.485 | [18] 0.045 | [19] 0.281 | [20] -0.009

KLHL7 isoform 3 (UniProt Q8IXQ5)
inactive: [2] 0.088 | [3] -0.213 | [4] 0.1 | [8] 0.004 | [9] -0.361 | [11] 0.083 | [12] 0.133 | [13] 0.227 | [18] 0.007
